# Primary screen of a compound library

Values are the deposited “Percent Effect”, in %.
The controls that fix the scale are not given in the record; negative values are as filed.
Compounds were drawn at random from those tested, without regard to their results.
A dash means the value is not listed here; it may have been measured.

Mtb growth Cornell: 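Whole-cell assay for inhibitors of Mycobacterium tuberculosis growth, labelled Cornell in the record; the read-out is not stated. The concentration is filed as 10 mM, unlikely as a test dose, so the dose is not known. Higher means stronger inhibition (inferred from two other growth screens of the library). Size under these conditions: about 53,000 compounds, about 900 of them at 50% or above in at least one test.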
Mtb heat-shock: 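Assay on Mycobacterium tuberculosis, filed only as a heat shock assay from Cornell; the read-out is not stated. The concentration is filed as 10 mM, unlikely as a test dose, so the dose is not known. Direction is inferred from retests: higher values go with stronger inhibition. About 69,000 compounds were tested under these conditions; 1.4% (about 930) showed 50% or more at least once.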

| SMILES | Mtb growth Cornell | Mtb heat-shock |
|---|---|---|
| `CC1(C(=O)NCc2ccsc2)CCOCC1` | - | -27.61 |
| `C=C(C)CN(CC)S(=O)(=O)c1cccc(F)c1C#N` | 34.07 | -23.41 |
| `O=C(Cc1cccc(F)c1)N1CCn2cc(Cn3cccn3)nc2C1.O=C(O)C(F)(F)F` | 10.36 | -0.8538 |
| `Cc1ccc(CN2CCNC(=O)C2CC(=O)NCc2n[nH]c(C)n2)cc1` (stereo not shown) | 19.48 | 10.45 |
| `O=C(O)c1cccc(N2CCC(Oc3cccc(F)c3)CC2)n1` | 44.92 | 1.425 |
| `O=C(c1cc(-c2cn[nH]c2)nc2cc(F)ccc12)N1CCS(=O)(=O)CC1` | - | -10.38 |
| `Cc1ncsc1CN1Cc2cn(C)nc2C(COCC2CC2)C1.O=C(O)C(F)(F)F.O=C(O)C(F)(F)F` (stereo not shown) | -28.23 | -9.393 |
| `Cc1nc(C)c(S(=O)(=O)NC(=O)c2ccsc2)s1` | -4.956 | -2.013 |
| `COc1cccc(-c2nc(C)c(C(=O)N[C@@H](CCSC)C(=O)O)s2)c1` | 4.928 | -37.16 |
| `O=C(Nc1ccc(CCN2CCOCC2)cc1)C1CCCC1` | - | 0.6522 |
| `c1c(CN2CCOCC2)nc2n1CCN(C1CCOCC1)C2` | 5.711 | 25.5 |
| `COc1cc(N2CCC3(CCN(Cc4csc(C)n4)C3=O)C2)ncn1.O=C(O)C(F)(F)F` (stereo not shown) | -4.07 | 35.35 |
| `Cc1[nH]nc2ncc(C(=O)N3CCN(CC(C)(C)O)CC3)cc12` | - | -9.018 |
| `CCc1c(C(=O)NCC2CCS(=O)(=O)C2)cnn1-c1ccccc1` (stereo not shown) | - | -12.56 |
| `CCN(CC(C)O)C(=O)Nc1cnn(CCOC)c1` (stereo not shown) | -36.31 | -6.266 |
| `Oc1nc(N2CCOCC2)nc2c1CCN(Cc1cccnc1)CC2` | 6.307 | -22.93 |
| `CC(C)c1nn(C)c(N(C)C)c1CNCC(O)c1ccccc1F` (stereo not shown) | 40.49 | -6.92 |
| `CCc1nc(N2CCCC(CCCOC)C2)c2cnn(C)c2n1` (stereo not shown) | 16.73 | -4.574 |
| `O=C(O)C(F)(F)F.O=C([C@H]1CCCO1)N1CCCC2(COCCN(c3ccccc3)C2)C1` (stereo partly shown) | 1.383 | 15.32 |
| `CN(C)CCCNC(=O)c1cc(Cl)ccc1Cl` | 21.7 | -9.118 |
| `Cc1cc(CN2CCC(c3cc(Cc4ccccc4)n[nH]3)CC2)[nH]n1` | - | -141.5 |
| `O=C(CNC1CCc2ncnn2C1)NCCc1cccs1` (stereo not shown) | 2.967 | 5.66 |
| `CSC(C)C(=O)NCc1ccnc(N2CCN(C)CC2)c1` (stereo not shown) | - | -11.11 |
| `CCOCCCC(=O)Nc1c(-c2ccc(F)cc2)ncn1C` | 0.1871 | -4.73 |
| `CC(C)N1CCC(C(=O)N2CCC(C(O)c3nccn3C)CC2)CC1` (stereo not shown) | - | -0.6456 |
| `CNS(=O)(=O)Cc1ccc(CNC(=O)c2ccc(C)[nH]c2=O)cc1` | -8.401 | -5.891 |
| `COCC(O)CN1CCC(=O)N(Cc2ccco2)Cc2ccccc21` (stereo not shown) | -33.6 | 21.12 |
| `COCc1csc(NC(=O)N2CCC(Cc3cnn(C)c3)C2)n1` (stereo not shown) | - | -30.87 |
| `Cc1cccc(C2CCCN2C(=O)CCS(C)(=O)=O)c1C` (stereo not shown) | -6.471 | 5.056 |
| `CCC(O)CN1CCN(C(=O)Cc2ccc(OC)cc2OC)CC1` (stereo not shown) | - | -34.51 |
| `Cc1cc(C)nc(N2CCc3ccc(OC(F)F)cc3C2)n1` | 108.4 | 28.93 |
| `O=C(NCCC(=O)N1CCCc2ccccc21)c1ccc(F)cc1F` | - | 1.444 |
| `NC(=O)C(NC(=O)COC1CCCC1)c1ccccc1` (stereo not shown) | 21.89 | 13.74 |
| `[H][C@@]12C[C@H](C(=O)N3CCOCC3)[C@@]([H])(CN(C(=O)Nc3ccccc3)C1)O2` | -7.316 | 10.89 |
| `Cn1cnnc1C1CCN(C(=O)c2cc(-c3ccccc3)on2)CC1` | -19.48 | -0.073 |
| `CCc1noc(C(C)Sc2nnc(C3CC3)n2CC(N)=O)n1` (stereo not shown) | 28.46 | -3.018 |
| `Cc1cnn(CC2CN(CCS(C)(=O)=O)CCO2)c1` (stereo not shown) | -25.95 | 3.305 |
| `CCc1nc(C)c(C(=O)NCCN2CCC(C)CC2)s1` | 17.81 | -5.565 |
| `Cc1ccsc1CN(Cc1ccccn1)CC(C)C` | -11.16 | 47.59 |
| `CC(C)OCCOCc1cccc(NC(=O)NCc2cnn(C)c2)c1` | - | 12.75 |
| `CCn1c(C)cc(C(=O)N2CCCC(n3ccnc3C)C2)c1C` (stereo not shown) | - | -31.24 |
| `CC(NC(=O)Nc1cccnc1N1CCCC1)c1ccccn1` (stereo not shown) | 5.856 | -26.66 |
| `O=C(O)C(F)(F)F.O=C(O)C(F)(F)F.[H][C@@]12C[C@H](C(=O)Nc3cccnc3)CN(CC3CC3)[C@]1([H])CCO2` | 9.973 | -31.01 |
| `O=C(CCSC1CCc2ccccc2NC1=O)NCCCO` (stereo not shown) | -5.661 | 21.12 |
| `CCOCCC(=O)N(Cc1ccncc1)C(C)CC` (stereo not shown) | -16.56 | -16.27 |
| `Cn1ccc(C(=O)NC2CCC23CCN(C(=O)c2ccccn2)CC3)c1` (stereo not shown) | -12.91 | 5.371 |
| `Cc1cc(O)c(OCC(=O)/N=c2\[nH]cc(C)s2)cn1` | -7.91 | -7.287 |
| `Cc1cc(C(=O)N2CCCC(c3ccc(C(=O)O)cc3)C2)c(C)o1` (stereo not shown) | 7.095 | -13.68 |
| `CCOCC1CN(C(=O)c2cscn2)Cc2cn(C)nc21.O=C(O)C(F)(F)F` (stereo not shown) | -19.01 | -37.83 |
| `Cc1noc(C2CCN(C(=O)c3ccc(C(F)(F)F)nc3)CC2)n1` | - | 20.09 |

For reference, 4 entries once more:

SMILES	Mtb growth Cornell	Mtb heat-shock
CC1(C(=O)NCc2ccsc2)CCOCC1	-	-27.61
Cc1cc(O)c(OCC(=O)/N=c2\[nH]cc(C)s2)cn1	-7.91	-7.287
CCc1c(C(=O)NCC2CCS(=O)(=O)C2)cnn1-c1ccccc1 (stereo not shown)	-	-12.56
O=C(O)c1cccc(N2CCC(Oc3cccc(F)c3)CC2)n1	44.92	1.425

Source: ChEMBL document CHEMBL3988442, “University of Dundee, Small-Polar-MMV Screening Library” (2021).